According to PMC3577899:
Results are given in words; binding and its absence hold for the method and conditions named. In cells and extracts the contact can be indirect. Here binding means that the protein was enriched with, or labelled near, the bait; the list need not be complete.

target: Polyoma (Glu-Glu) epitope-tagged full-length PSI (P element Somatic Inhibitor) (Drosophila); assay: affinity purification with mass spectrometry; tandem immunoprecipitation from S2 RNP extract: anti-polyoma beads, elution with EYMPME peptide, RNase A treatment, then polyclonal anti-PSI beads (rabbit IgG beads in parallel as control); washes 20 mM Hepes-KOH pH 7.5, 200 mM KCl, 2 mM MgCl2, 0.05% NP-40; eluted with glycine pH 2.5

binding	Binder
binds	Recombination Repair Protein 1 (Rrp1) (protein, UniProt P27864 1-679) MPRVKAVKKQAEALASEPTDPTPNANGNGVDENADSAAEELKVPAKGKPRARKATKTAVSAENSEEVEPQKAPTAAARGKKKQPKDTDENGQMEVVAKPKGRAKKATAEAEPEPKVDLPAGKATKPRAKKEPTPAPDEVTSSPPKGRAKAEKPTNAQAKGRKRKELPAEANGGAEEAAEPPKQRARKEAVPTLKEQAEPGTISKEKVQKAETAAKRARGTKRLADSEIAAALDEPEVDEVPPKAASKRAKKGKMVEPSPETVGDFQSVQEEVESPPKTAAAPKKRAKKTTNGETAVELEPKTKAKPTKQRAKKEGKEPAPGKKQKKSADKENGVVEEEAKPSTETKPAKGRKKAPVKAEDVEDIEEAAEESKPARGRKKAAAKAEEPDVDEESGSKTTKKAKKAETKTTVTLDKDAFALPADKEFNLKICSWNVAGLRAWLKKDGLQLIDLEEPDIFCLQETKCANDQLPEEVTRLPGYHPYWLCMPGGYAGVAIYSKIMPIHVEYGIGNEEFDDVGRMITAEYEKFYLINVYVPNSGRKLVNLEPRMRWEKLFQAYVKKLDALKPVVICGDMNVSHMPIDLENPKNNTKNAGFTQEERDKMTELLGLGFVDTFRHLYPDRKGAYTFWTYMANARARNVGWRLDYCLVSERFVPKVVEHEIRSQCLGSDHCPITIFFNI
binds	snRNP70K (protein, UniProt P17133 1-448) MTQYLPPNLLALFAAREPIPFMPPVDKLPHEKKSRGYLGVAKFMADFEDPKDTPLPKTVETRQERLERRRREKAEQVAYKLEREIALWDPTEIKNATEDPFRTLFIARINYDTSESKLRREFEFYGPIKKIVLIHDQESGKPKGYAFIEYEHERDMHAAYKHADGKKIDSKRVLVDVERARTVKGWLPRRLGGGLGGTRRGGNDVNIKHSGREDNERERERYRLEREREDREGPGRGGGSNGLDARPGRGFGAERRRSRSRERRDRERDRGRGAVASNGRSRSRSRERRKRRAGSRERYDEFDRRDRRDRERERDRDREREKKKKRSKSRERESSRERRERKRERRDRERGTGSGGDVKERKPDFRDMDVIKIKEEPVDDGYPTFDYQNATIKREIDDEDEEKYRPPPAHHNMFSVPPPPILGRGNASTNPNPDNGQQSSGDPSWWRQ
binds	hrp48 (protein, UniProt P48809 1-421) MEEDERGKLFVGGLSWETTQENLSRYFCRFGDIIDCVVMKNNESGRSRGFGFVTFADPTNVNHVLQNGPHTLDGRTIDPKPCNPRTLQKPKKGGGYKVFLGGLPSNVTETDLRTFFNRYGKVTEVVIMYDQEKKKSRGFGFLSFEEESSVEHVTNERYINLNGKQVEIKKAEPRDGSGGQNSNNSTVGGAYGKLGNECSHWGPHHAPINMMQGQNGQMGGPPLNMPIGAPNMMPGYQGWGTSPQQQQYGYGNSGPGSYQGWGAPPGPQGPPPQWSNYAGPQQTQGYGGYDMYNSTSTGAPSGPSGGGSWNSWNMPPNSAGPTGAPGAGAGTATDMYSRAQAWATGGPSTTGPVGGMPRTGPGNSASKSGSEYDYGGYGSGYDYDYSNYVKQEGASNYGAGPRSAYGNDSSTQPPYATSQAV
binds	PUF68 (protein, UniProt Q8T6B9 1-637) MGSNDRASRSPRSDDQREISDMPATKRTRSDSGKSTDSKIPYLSQPLYDLKQTGDVKFGPGTRSALLGLLGGALPKLSSEQHDLVSKAKKYAMEQSIKMVLMKQTLAHQQQQLATQRTQVQRQQALALMCRVYVGSISFELKEDTIRVAFTPFGPIKSINMSWDPITQKHKGFAFVEYEIPEGAQLALEQMNGALMGGRNIKVGRPSNMPQAQQVIDEVQEEAKSFNRIYVASIHPDLSEEDIKSVFEAFGPILYCKLAQGTSLHTHKGYGFIEYANKQAMDEAIASMNLFDLGGQLLRVGRSITPPNALACPTTNSTMPTAAAVAAAAATAKIQALDAVASNAVLGLSQNTPVMAAGAVVTKVGAMPVVSAATSAAALHPALAQAAPALLPPGIFQAPTPVAPSLLGVPAGLQPLQAVVPTLPPPALLATPTLPMTVGGVGVGLVPTVATLAGAEASKGAAAAAALSAAANNAAVTAANLSENIKKAHEKQQEELQKKLMDEGDVQTLQQQENMSIKGQSARQLVMQRLMRPVDSRVIILRNMVGPEDVDETLQEEIQEECSKFGTVSRVIIFNEKQTENEDDDEAEIIVKIFVEFSAGAEAMRGKEALDGRFFGGRRVVAELYDQGIFDQGDLSG
